Results deposited as PubChem BioAssay AID1259280 (Sanger Institute, 2017).

Screen: 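Essential kinases and drug-combination synergies in SNU407 cells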 (primary screen)
Cells: human SNU407 colorectal cancer cells
Knock-down reagent: siRNA pool against human genes
Conditions: anchor drugs BYL719 at 1 µM, cetuximab at 5 µg/ml or trametinib at 10 nM, or DMSO vehicle alone; exposure time not given
Detection: 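Viability relative to non-targeting control siRNA, expressed as robust z-score, plus a synergy score for each of the three anchor drugs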
Direction: viability z-score, no drug and viability vs control, no drug: higher = more cells survive the knock-down
Units: viability vs control, no drug in fraction of control
Call rule: 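Essential calls require a no-drug robust viability z-score under -3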
Calls: active = essential (knock-down alone kills cells); inactive = no change without drug
This is an unselected part of 794 reagents. In the full data, 12 (1.5%) were called active. 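Calls cover knock-down without drug only; synergy scores stand apart, values above 0.15 being treated as synergy.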 No viability above 1 is reported: the scale is capped. Further read-outs or replicates are left out here. Reagent sequences are not shown. Not stated in the record: the amount of reagent, the time to read-out.

With DGKI, what does the deposit list?
viability z-score, no drug: 0.901; viability vs control, no drug: 1; outcome: inactive

What is on record for NUP107?
viability z-score, no drug: -2.62; viability vs control, no drug: 0.731; outcome: inactive

For PMVK, what does the deposit list?
viability z-score, no drug: -0.0955; viability vs control, no drug: 0.924; outcome: inactive

What did the screen give for CDK16?
viability z-score, no drug: 0.0834; viability vs control, no drug: 0.938; outcome: inactive

What is on record for DDR1?
viability z-score, no drug: -0.462; viability vs control, no drug: 0.896; outcome: inactive

What did the screen give for BMP2K?
viability z-score, no drug: 0.203; viability vs control, no drug: 0.947; outcome: inactive

What is on record for DCLK1?
viability z-score, no drug: -0.092; viability vs control, no drug: 0.924; outcome: inactive

For MAPK12, how do the results read?
viability z-score, no drug: 0.901; viability vs control, no drug: 1; outcome: inactive

For HUNK, what does the deposit list?
viability z-score, no drug: -1.28; viability vs control, no drug: 0.834; outcome: inactive

What did the screen give for TRIM27?
viability z-score, no drug: -0.17; viability vs control, no drug: 0.918; outcome: inactive

What is on record for PCK2?
viability z-score, no drug: 0.898; viability vs control, no drug: 1; outcome: inactive

Quoted from the entries so far (4 entries):
PMVK: viability z-score, no drug = -0.0955; viability vs control, no drug = 0.924; outcome = inactive
CDK16: viability z-score, no drug = 0.0834; viability vs control, no drug = 0.938; outcome = inactive
DDR1: viability z-score, no drug = -0.462; viability vs control, no drug = 0.896; outcome = inactive
BMP2K: viability z-score, no drug = 0.203; viability vs control, no drug = 0.947; outcome = inactive

Further reagents follow.
How did the screen score WNK4?
viability z-score, no drug: 0.901; viability vs control, no drug: 1; outcome: inactive

With MARK1, what does the deposit list?
viability z-score, no drug: 0.901; viability vs control, no drug: 1; outcome: inactive

What did the screen give for RUNX1?
viability z-score, no drug: 0.46; viability vs control, no drug: 0.966; outcome: inactive

How did the screen score RIOK3?
viability z-score, no drug: -0.824; viability vs control, no drug: 0.868; outcome: inactive

For SCYL1, what does the deposit list?
viability z-score, no drug: 0.901; viability vs control, no drug: 1; outcome: inactive

For PFKL, how do the results read?
viability z-score, no drug: -0.123; viability vs control, no drug: 0.922; outcome: inactive

Which result is listed for RPS6KB1?
viability z-score, no drug: -0.632; viability vs control, no drug: 0.883; outcome: inactive

What is on record for STK10?
viability z-score, no drug: 0.238; viability vs control, no drug: 0.949; outcome: inactive

How did the screen score STK32C?
viability z-score, no drug: 0.484; viability vs control, no drug: 0.968; outcome: inactive

What did the screen give for MAP3K14?
viability z-score, no drug: -0.43; viability vs control, no drug: 0.898; outcome: inactive

Which result is listed for SYK?
viability z-score, no drug: -3.53; viability vs control, no drug: 0.662; outcome: active

What is on record for PLK1?
viability z-score, no drug: -6.14; viability vs control, no drug: 0.462; outcome: active

What did the screen give for IKBKE?
viability z-score, no drug: 0.901; viability vs control, no drug: 1; outcome: inactive

With FN1, what was measured?
viability z-score, no drug: -0.872; viability vs control, no drug: 0.865; outcome: inactive

How did the screen score MED12?
viability z-score, no drug: -0.643; viability vs control, no drug: 0.882; outcome: inactive

What did the screen give for TP53?
viability z-score, no drug: 0.622; viability vs control, no drug: 0.979; outcome: inactive

What is on record for TRIO?
viability z-score, no drug: 0.901; viability vs control, no drug: 1; outcome: inactive
